The results in this text go back to PMC7327995.

No constants are given. Whether binding was seen depends on the method and setting. In cells and extracts the contact can be indirect. Some binding calls cover weakened binding; strength is not graded here. Tags and fused reporters may be left off the sequences shown.

The test has as its target T1, Myc-SNAP-23 (UniProt O09044).
T1 sequence: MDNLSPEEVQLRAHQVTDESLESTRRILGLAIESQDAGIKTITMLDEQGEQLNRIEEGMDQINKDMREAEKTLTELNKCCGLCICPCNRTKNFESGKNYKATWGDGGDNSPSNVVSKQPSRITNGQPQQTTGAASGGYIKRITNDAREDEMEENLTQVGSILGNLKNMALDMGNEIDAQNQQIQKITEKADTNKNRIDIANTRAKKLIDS
As to the kind of experiment: co-IP; lysates of J774 cells stably co-expressing mVenus-tagged proteins and Myc-SNAP-23, with or without zymosan; immunoprecipitated with anti-Myc antibodies, Western blot.

B1: mVenus-MORN2 wt (membrane occupation and recognition nexus repeat-containing-2), full-length form (protein, UniProt Q6UL01 2-79)
chain: NGFGRLEHFSGAVYEGQFKDNMFHGLGTYTFPTGAKYTGNFNENRVEGEGEYTDTQGLQWCGNFHFTAAPGLKLKLYM
On to B1, for which the binding entry was “binds”.
